Columns and labels:
MDA-MB-231 cells = assay: MTT cell proliferation assay; type: cell-based, human; conditions: ratio IC50 (MCF-10A) / IC50 (MDA-MB-231)
Procedure: MDA-MB-231 human breast tumor cells and MCF7 human breast tumor cells, obtained from Rio de Janeiro Cell Bank, were maintained at 37°C in 5% CO2 in DMEM medium containing fetal bovine serum (FBS) 10% (Vitrocell). MCF-10A, a non-tumor breast cell line, obtained from Rio de Janeiro Cell Bank, was cultivated in DMEM/F12 medium containing horse serum (HS) 5%, EGF (0.02 mg/mL); hydrocortisone (0.05 mg/mL); cholera toxin (0.001 mg/mL) and insulin (0.01 mg/mL). Both media contained penicillin (100 UI/mL), streptomycin ([…]) and L-glutamine (2 mM).
Proliferation assays were performed as described earlier. Briefly, cells lines were prepared in a concentration of 1x10^4 cells/100 μL, in complete medium (with 10% FBS), and plated on sterile 96-well plates for 24 h. The culture medium was removed from the wells and a new one, supplemented with 10% FBS and containing different concentrations of (1) [Ru(SO4)(dppb)(bipy)] (2) [Ru(CO3)(dppb)(bipy)], (3), [Ru(C2O4)(dppb)(bipy)], or (4) [Ru(CH3CO2)(dppb)(bipy)]PF6, was added to the wells. Cells were incubated for 24 h under the same conditions as described above. Cell proliferation assay was performed in comparison with untreated control. After incubation, the culture medium of each well was removed and a solution containing MTT (1 mg/mL) was added (100 μL/well). The plates were then kept at 37°C for 4 h and the formed crystals were dissolved in DMSO. The absorbance was read on an ELISA plate reader at a wavelength of 540 nm. […] The selectivity index (SI) was calculated as the ratio IC50 (MCF-10A) / IC50 (MDA-MB-231).
Each experiment was repeated three times in triplicate and a standard error mean was calculated. Shapiro-Wilk’s test was used to verify data normality. As normal distribution was present, the results were compared statistically with a one-way or two-way analysis of variance (ANOVA). […] The data were analysed and IC50 calculations were made using Hill’s equation in the GraphPad Prism software (version 6.05).

ct-DNA (calf thymus DNA) = assay: UV-Vis spectroscopic titration with ct-DNA; type: binding; conditions: hypochromism on ct-DNA addition

| Molecule | SI (selectivity index) (MDA-MB-231 cells) | % H (DNA) (ct-DNA (calf thymus DNA)) [%] |
| --- | --- | --- |
| [Cl-].[Cl-].[Ru+2].c1ccc(-c2ccccn2)nc1.c1ccc(P(CCCCP(c2ccccc2)c2ccccc2)c2ccccc2)cc1 [Precursor, cis-[RuCl2(dppb)(bipy)], reference compound] | < 0.41 | – |
| CC(=O)[O-].F[P-](F)(F)(F)(F)F.[Ru+2].c1ccc(-c2ccccn2)nc1.c1ccc(P(CCCCP(c2ccccc2)c2ccccc2)c2ccccc2)cc1 [Complex (4), [Ru(CH3CO2)(dppb)(bipy)]PF6] | 1.57 | 37.80 ± 1.00 |
| [Ru(CO3)(dppb)(bipy)] [Complex (2)] | 0.60 | 53.04 ± 0.20 |
| O=S(=O)([O-])[O-].[Ru+2].c1ccc(-c2ccccn2)nc1.c1ccc(P(CCCCP(c2ccccc2)c2ccccc2)c2ccccc2)cc1 [Complex (1), [Ru(SO4)(dppb)(bipy)]] | < 0.21 | 51.45 ± 2.15 |
| O=C([O-])C(=O)[O-].[Ru+2].c1ccc(-c2ccccn2)nc1.c1ccc(P(CCCCP(c2ccccc2)c2ccccc2)c2ccccc2)cc1 [Complex (3), [Ru(C2O4)(dppb)(bipy)]] | < 0.21 | 58.55 ± 0.92 |
